According to paper PMC7822929:
No constants are given. Whether binding was seen depends on the method and setting. In cells and extracts the contact can be indirect. Some results given as binding are weak or reduced against the parent protein; the word gives no strength.

Amino acid sequences for entries named in this document (tags omitted). Residues count along the entry.
UniProt O00206, residues 24-839: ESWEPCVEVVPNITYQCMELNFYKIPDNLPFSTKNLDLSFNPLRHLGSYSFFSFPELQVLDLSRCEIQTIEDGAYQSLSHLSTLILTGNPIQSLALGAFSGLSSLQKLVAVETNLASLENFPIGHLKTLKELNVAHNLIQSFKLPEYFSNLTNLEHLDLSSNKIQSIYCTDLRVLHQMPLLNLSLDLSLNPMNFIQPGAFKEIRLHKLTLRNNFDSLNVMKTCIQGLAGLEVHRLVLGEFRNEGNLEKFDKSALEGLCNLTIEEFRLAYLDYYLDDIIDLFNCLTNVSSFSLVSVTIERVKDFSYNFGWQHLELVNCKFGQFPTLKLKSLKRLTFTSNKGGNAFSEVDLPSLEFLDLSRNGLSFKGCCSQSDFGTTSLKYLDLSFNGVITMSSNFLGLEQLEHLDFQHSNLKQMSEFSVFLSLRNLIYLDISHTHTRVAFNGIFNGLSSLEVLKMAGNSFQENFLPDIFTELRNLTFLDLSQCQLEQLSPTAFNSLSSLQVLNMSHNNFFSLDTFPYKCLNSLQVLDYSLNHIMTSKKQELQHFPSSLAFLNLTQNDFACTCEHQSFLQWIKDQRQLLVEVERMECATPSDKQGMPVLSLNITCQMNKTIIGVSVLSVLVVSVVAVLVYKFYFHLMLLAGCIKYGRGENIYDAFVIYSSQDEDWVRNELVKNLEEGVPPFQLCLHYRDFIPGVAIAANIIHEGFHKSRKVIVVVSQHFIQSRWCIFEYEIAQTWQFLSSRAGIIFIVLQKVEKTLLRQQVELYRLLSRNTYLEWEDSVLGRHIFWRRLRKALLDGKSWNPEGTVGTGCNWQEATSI
UniProt P14625, residues 22-803: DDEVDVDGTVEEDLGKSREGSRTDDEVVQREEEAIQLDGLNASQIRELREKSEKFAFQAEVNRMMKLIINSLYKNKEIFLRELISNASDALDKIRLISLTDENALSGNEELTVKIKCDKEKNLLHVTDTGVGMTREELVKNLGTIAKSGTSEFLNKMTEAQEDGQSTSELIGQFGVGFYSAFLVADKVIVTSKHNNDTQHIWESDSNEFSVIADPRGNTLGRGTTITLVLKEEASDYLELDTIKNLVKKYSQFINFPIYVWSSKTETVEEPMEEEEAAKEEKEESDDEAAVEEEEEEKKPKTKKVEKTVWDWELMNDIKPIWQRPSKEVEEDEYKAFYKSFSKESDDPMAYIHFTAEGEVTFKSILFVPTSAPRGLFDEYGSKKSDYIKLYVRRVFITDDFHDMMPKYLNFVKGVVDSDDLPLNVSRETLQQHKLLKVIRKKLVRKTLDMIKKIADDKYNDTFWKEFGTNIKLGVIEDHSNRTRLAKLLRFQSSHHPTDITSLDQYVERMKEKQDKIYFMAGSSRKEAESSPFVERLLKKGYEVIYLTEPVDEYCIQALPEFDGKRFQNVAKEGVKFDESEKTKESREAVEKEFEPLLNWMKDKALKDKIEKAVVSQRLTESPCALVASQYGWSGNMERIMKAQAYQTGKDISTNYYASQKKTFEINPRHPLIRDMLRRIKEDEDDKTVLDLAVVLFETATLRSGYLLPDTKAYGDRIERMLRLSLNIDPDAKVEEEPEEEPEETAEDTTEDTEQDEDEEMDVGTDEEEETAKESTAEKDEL

Target: TLR4, endogenous in human monocyte-derived macrophages (human (endogenous in monocyte-derived macrophages)) (UniProt O00206)
Experiment: proximity ligation; Duolink PLA in situ in activated M1 and M2 macrophages, treated or not with Tg, pretreated or not with PU-WS13 or DMSO; pairs of primary antibodies (anti-C3d + anti-GRP94; anti-GRP94 + anti-TLR4; anti-GRP94 + anti-cathepsin L); spots per cell counted

With “Glucose-regulated protein 94 (GRP94), endogenous in human monocyte-derived macrophages (from UniProt P14625 22-803)” as the substance, how does the binding read?
The binding was “binds”.
